Experimental data taken from PubChem BioAssay AID2685 (National Center for Advancing Translational Sciences (NCATS), 2010).
This is one part of the list. These are further read-outs of the screen, such as a control signal, another cell line or another target. No call is given for them. Most of these compounds were active or inconclusive in the main read-out, so they are no random draw. Potencies come from curve fits of mixed quality, noted in brackets. Where a SMILES comes first, the peptide text is derived from it. [ ]: non-standard residue; d: D form. pGlu = O=C1CC[CH](C(=O)O)N1

Assay: qHTS Assay for Lipid Storage Modulators in Drosophila S3 Cells;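 as to cell number change: cells counted by Cell Tracker Red CMTPX staining in the red channel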
Details: BODIPY lipid droplet fluorescence, 18-24 h; for cell number change: measured here: cell count max response, cells fed with added oleic acid
In short: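 Drosophila S3 cells loaded with oleic acid (400 uM, as added) and compounds at several concentrations; lipid droplets imaged by 488-nm laser-scanning cytometry, 500–530 nm intensity and object ratio to cell channel. Percent activity normalized to 20 uM Triacsin C.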

[1] = measured here: cell number channel AC50, cells fed with added oleic acid
[2] = measured here: lipid fluorescence (Fed channel) AC50, cells fed with added oleic acid

## c1ccc(-c2nc(NC3CC3)nc(-n3ccnc3)n2)cc1
  cell number change: -55.6%
[1]
  AC50: 13 µM [falling, partial curve]
[2]
  AC50: 0.259 µM [rising, full curve]

## O=C(Nc1cccc(C(=O)Nc2cccc(Br)c2)c1)c1ccccc1
[2]
  AC50: 0.291 µM [falling, full curve]

## Cc1ccc(S(=O)(=O)N(C)C)cc1NC(=O)CSc1nncs1
[1]
  AC50: 0.82 µM [rising, full curve]

## Cc1cc(C)cc(N(CC(=O)NCc2ccccc2)C(=O)CCC(=O)Nc2ccccn2)c1
  cell number change: 30.2%
[1]
  AC50: 8.2 µM [rising, partial curve, poor fit]

## O=C1NC(c2cccs2)Nc2ccccc21 (stereo not drawn)
  cell number change: -48.9%
[1]
  AC50: 23.1 µM [falling, partial curve, poor fit]

## O=C(CN1C(=O)NC(Cc2c[nH]c3ccccc23)C1=O)Nc1ccc(Br)cc1F (stereo not drawn)
  cell number change: 49.9%
[1]
  AC50: 29.1 µM [rising, single point]

## CNC(=S)N/N=C(\C)c1ccc(N2CCOCC2)cc1
  cell number change: -0.739%
[2]
  AC50: 0.092 µM [rising, full curve, poor fit]

## O=C(OCc1nc2ccccc2s1)[C@@H]1CCCN1S(=O)(=O)c1ccccc1F
  cell number change: -3.15%
[2]
  AC50: 3.66 µM [falling, full curve]

## CC(C)CC(NC(=O)C1CCC(=O)N1)C(=O)NC(CC(C)C)C(=O)N1CCCC1C(N)=O (stereo not drawn) ([pGlu]LLP-NH2; configuration not given here)
  cell number change: 42.6%
[1]
  AC50: 32.6 µM [rising, partial curve]
[2]
  AC50: 6.51 µM [rising, single point]

## CN1CCN(C(=O)c2ccc(C(C)(C)C)cc2)CC1
  cell number change: 23.8%
[2]
  AC50: 0.146 µM [falling, full curve, poor fit]

## CC(C)CN(C(=O)C1CSC2(C)CCC(=O)N12)c1c(N)n(Cc2ccccc2)c(=O)[nH]c1=O (stereo not drawn)
  cell number change: -27.8%
[1]
  AC50: 0.58 µM [falling, full curve, poor fit]
[2]
  AC50: 13 µM [falling, partial curve]

## Cc1ccc(C)c(OCC(=O)N2CCc3ccccc3C2)c1
  cell number change: 28.2%
[2]
  AC50: 14.6 µM [rising, single point]

## COc1ccc(CN(C)c2ncnc(N)n2)cc1
  cell number change: -0.713%
[2]
  AC50: 16.4 µM [falling, partial curve]

## Cc1cc(=O)oc(C)c1C(=O)NCc1ccco1
  cell number change: -23.2%
[1]
  AC50: 0.0517 µM [falling, full curve]

## COCCC(=O)N1CCC(Oc2ccc(C(=O)NCCCC3CCCC3)cc2)CC1
  cell number change: 18.5%
[2]
  AC50: 1.84 µM [rising, full curve, poor fit]

## Cc1nnc2ccc(-c3ccc(NS(=O)(=O)c4ccccc4F)cc3)nn12
[1]
  AC50: 2.31 µM [rising, partial curve]

## C#CCNC(=O)C1=C[C@H](C)[C@@H](CCCO)[C@H](OCC)O1
  cell number change: -8.02%
[2]
  AC50: 7.31 µM [falling, single point]

## CCCCCCC(=O)NCC(=O)OCC(=O)c1ccccc1
  cell number change: -32.7%
[1]
  AC50: 4.61 µM [falling, full curve]
[2]
  AC50: 4.11 µM [falling, full curve]

## O=C(NNCC(O)COc1ccccc1)c1ccccc1 (stereo not drawn)
[1]
  AC50: 0.00517 µM [falling, full curve, poor fit]
[2]
  AC50: 0.731 µM [falling, full curve, poor fit]

## CC(OC(=O)Cn1cnc2c1c(=O)n(C)c(=O)n2C)C(=O)Nc1ccc(Cl)cc1 (stereo not drawn)
  cell number change: -0.427%
[2]
  AC50: 6.51 µM [rising, partial curve]

## CCOC(=O)N1CCC(N2Cc3cccc(C(=O)NC(C)c4ccc5c(c4)OCCO5)c3C2=O)CC1 (stereo not drawn)
  cell number change: -5.45%
[2]
  AC50: 0.82 µM [rising, single point]

## O=C1c2ccccc2OCOc2ccccc21
  cell number change: -33.2%
[2]
  AC50: 0.461 µM [falling, full curve]

## CN(C)CC(O)COc1ccc(-c2ccc(C#N)cc2)cc1 (stereo not drawn)
  cell number change: -63.5%
[1]
  AC50: 29.1 µM [falling, single point]
[2]
  AC50: 29.1 µM [falling, single point]

## COc1cc(C(=O)NC2CCN(Cc3ccccc3)CC2)cc(Cl)c1OC
  cell number change: 18%
[2]
  AC50: 2.06 µM [rising, full curve]

## Cc1ccc(NC(=O)COc2ccc(/C=C3/SC(=Nc4ccccc4)N(Cc4cccnc4)C3=O)cc2)cc1
  cell number change: -0.133%

## Cc1ccc(S(=O)(=O)N(C)CCCC(=O)Nc2ccncc2)cc1
  cell number change: -19.5%
[2]
  AC50: 5.17 µM [rising, full curve]

## Cc1cccc(/C=C/C(=O)c2ccc(N3CCOCC3)cc2)c1
[2]
  AC50: 6.51 µM [rising, single point]

## O=C(NCc1ccccn1)c1ccc(N2CCCC2=O)cc1
  cell number change: 20.6%
[2]
  AC50: 23.1 µM [rising, single point]

## COCCCN(C(=O)c1cc(C)oc1C)c1c(N)n(CC(C)C)c(=O)[nH]c1=O
[2]
  AC50: 16.4 µM [rising, partial curve]

## Nc1n[nH]c(N)c1N=Nc1cccc(C(F)(F)F)c1
  cell number change: -27.8%
[2]
  AC50: 29.1 µM [falling, single point]

## Cc1ccccc1-n1ncc(C(C)NC(=O)c2ccccc2)c1C (stereo not drawn)
  cell number change: -38.6%
[1]
  AC50: 0.103 µM [falling, full curve]
[2]
  AC50: 0.164 µM [falling, full curve, poor fit]

## CC1(C)C(c2cccs2)=NC(c2ccccc2)N1O (stereo not drawn)
  cell number change: 4.58%
[2]
  AC50: 20.6 µM [rising, single point]

## Cc1ccc(S(=O)(=O)N(C)c2ccc(C(=O)Nc3ccccn3)cc2)cc1
  cell number change: 25.4%
[1]
  AC50: 1.03 µM [rising, full curve, poor fit]
[2]
  AC50: 1.46 µM [rising, full curve]

## Cc1c(Cl)cccc1NC(=O)C1NC(=O)CC1c1ccccc1 (stereo not drawn)
  cell number change: -30.5%

## CCOc1ccc(C(=O)Nc2cc3c(cc2N2CCCC2)n(CC)c(=O)n3CC)cc1OCC
  cell number change: -21.7%
[2]
  AC50: 29.1 µM [falling, single point]

## CSc1nc(-c2ccccc2)nc(N2CCCC2)c1C(C)=O
  cell number change: -16.1%
[1]
  AC50: 0.366 µM [falling, full curve, poor fit]

## O=C(Cn1nnc(-c2ccccc2)n1)N/N=C/c1ccco1
  cell number change: 9.98%
